In publication PMC5540616 one finds binding data, which are given here for 2 substances.

By UniProt entry, the sequences of proteins in these tests, tags left out. Where a name states a change or a piece, a line headed by the entry shows the natural chain unless it says otherwise.
UniProt P11166: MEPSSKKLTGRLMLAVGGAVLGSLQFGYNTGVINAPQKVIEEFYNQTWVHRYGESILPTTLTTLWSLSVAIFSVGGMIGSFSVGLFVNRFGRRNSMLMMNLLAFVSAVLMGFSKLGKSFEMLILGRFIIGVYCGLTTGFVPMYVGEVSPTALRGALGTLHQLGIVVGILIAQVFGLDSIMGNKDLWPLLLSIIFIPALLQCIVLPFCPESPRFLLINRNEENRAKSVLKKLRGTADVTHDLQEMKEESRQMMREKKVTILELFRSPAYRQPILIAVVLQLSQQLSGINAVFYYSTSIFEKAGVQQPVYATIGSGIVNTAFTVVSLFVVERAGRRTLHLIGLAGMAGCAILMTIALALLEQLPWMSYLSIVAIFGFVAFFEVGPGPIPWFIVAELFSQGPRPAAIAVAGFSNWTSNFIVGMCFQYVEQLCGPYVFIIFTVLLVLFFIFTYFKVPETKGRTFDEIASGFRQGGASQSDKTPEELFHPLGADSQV
UniProt P03230: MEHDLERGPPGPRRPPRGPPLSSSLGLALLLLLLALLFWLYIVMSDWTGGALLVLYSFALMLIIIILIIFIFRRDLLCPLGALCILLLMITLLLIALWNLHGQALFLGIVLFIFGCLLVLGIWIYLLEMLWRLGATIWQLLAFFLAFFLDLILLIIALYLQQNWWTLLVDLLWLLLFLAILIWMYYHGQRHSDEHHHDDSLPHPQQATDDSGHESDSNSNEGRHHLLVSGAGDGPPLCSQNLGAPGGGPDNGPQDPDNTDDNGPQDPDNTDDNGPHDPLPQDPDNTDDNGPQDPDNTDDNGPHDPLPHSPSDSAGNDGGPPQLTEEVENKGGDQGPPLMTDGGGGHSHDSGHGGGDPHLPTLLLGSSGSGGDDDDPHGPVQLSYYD

No constants are given. Whether binding was seen depends on the method and setting. In cells and extracts the contact can be indirect. A result given as binding can be weak or reduced; the word gives no strength.

The experiment addresses glucose transporter 1 (GLUT1), endogenous (human (endogenous in CNE2 and TW03)) (UniProt P11166). Put plainly: co-IP; CNE2 cells expressing Flag-tagged full-length LMP1, LMP1 1–230 or LMP1 1–322; LMP1 forms pulled down by GLUT1, immunoblot. In general terms: In western blotting, separated proteins are transferred to a membrane and probed.

As for “Flag-tagged truncated LMP1 1-230 (from UniProt P03230) (domain or fragment)”, the binding entry is given as “no binding”.

Regarding “Flag-tagged truncated LMP1 1-322 (from UniProt P03230) (domain or fragment)”, the binding result is given as “binds”.
